PubChem BioAssay AID743121 | NCATS – 2013
In all, the deposit lists about 26,000 reagents; below is a random part of them. 167 of them (0.63%) count as active. 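Calls are per gene from RSA p-values that are not deposited; an individual active-marked siRNA can sensitise only weakly.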 The numbers tell different reagents against one gene apart. Not all columns of the deposit are shown.

- Purpose: 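Genes whose silencing strengthens cell killing by camptothecin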 (primary screen)
- System: MDA-MB-231 cells, a human breast cancer line
- Knock-down reagent: single siRNA against human genes, 20 nM siRNA (0.8 pmol per well)
- Duration: 120 h (drug added 48 h after transfection, read 72 h later)
- Challenge: camptothecin 20 nM (about EC30) for 72 h; vehicle 0.1% DMSO in parallel plates
- Measurement: 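CellTiter-Glo ATP signal, scaled to control siRNA as percent viability; sensitisation given as log2 of untreated divided by camptothecin-treated viability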
- Scale: log2 vehicle/camptothecin viability: higher = stronger sensitisation to camptothecin; viability with camptothecin: higher = more viable cells
- Hit rule: 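Active genes have an RSA gene-level p-value below 0.001, computed from the ratios of their separate siRNAs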

The opening 5 entries, to show the layout:
no.	target	reagent no.	log2 vehicle/camptothecin viability	viability with camptothecin (% of control)	outcome
1	NTSR2 (neurotensin receptor 2)	1	-0.241	78.7	inactive
2	NTSR2 (neurotensin receptor 2)	2	0.387	52.5	inactive
3	NTSR2 (neurotensin receptor 2)	3	-0.377	53.9	inactive
4	NTSR2 (neurotensin receptor 2)	4	-0.21	65.4	inactive
5	GLRA2 (glycine receptor alpha 2)	1	-0.157	101	inactive

Results, repeating the preview:
no.	target	reagent no.	log2 vehicle/camptothecin viability	viability with camptothecin (% of control)	outcome
1	NTSR2 (neurotensin receptor 2)	1	-0.241	78.7	inactive
2	NTSR2 (neurotensin receptor 2)	2	0.387	52.5	inactive
3	NTSR2 (neurotensin receptor 2)	3	-0.377	53.9	inactive
4	NTSR2 (neurotensin receptor 2)	4	-0.21	65.4	inactive
5	GLRA2 (glycine receptor alpha 2)	1	-0.157	101	inactive
6	GLRA2 (glycine receptor alpha 2)	2	-0.232	95.2	inactive
7	GLRA2 (glycine receptor alpha 2)	3	-0.155	113	inactive
8	GLRA2 (glycine receptor alpha 2)	4	-0.135	77.7	inactive
9	CD86 (CD86 molecule)	1	0.12	81.3	inactive
10	CD86 (CD86 molecule)	2	-0.378	126	inactive
11	CD86 (CD86 molecule)	3	-0.344	95.4	inactive
12	CD86 (CD86 molecule)	4	-0.228	86.3	inactive
13	MMP23B (matrix metallopeptidase 23B)	1	-0.41	96.5	inactive
14	MMP23B (matrix metallopeptidase 23B)	2	-0.334	98.7	inactive
15	MMP23B (matrix metallopeptidase 23B)	3	-0.0817	24	inactive
16	PIGR (polymeric immunoglobulin receptor)	1	0.775	42.9	inactive
17	PIGR (polymeric immunoglobulin receptor)	2	-0.33	110	inactive
18	PIGR (polymeric immunoglobulin receptor)	3	0.00753	70.3	inactive
19	PIGR (polymeric immunoglobulin receptor)	4	-0.0419	48.2	inactive
20	AKR1C2 (aldo-keto reductase family 1 member C2)	1	0.172	53.3	inactive
21	AKR1C2 (aldo-keto reductase family 1 member C2)	2	-0.081	107	inactive
22	AKR1C2 (aldo-keto reductase family 1 member C2)	3	0.162	96.9	inactive
23	AKR1C2 (aldo-keto reductase family 1 member C2)	4	-0.34	76.6	inactive
24	AKR1C2 (aldo-keto reductase family 1 member C2)	5	-0.0883	106	inactive
25	AKR1C2 (aldo-keto reductase family 1 member C2)	6	0.092	85.2	inactive
26	AKR1C2 (aldo-keto reductase family 1 member C2)	7	-0.119	117	inactive
27	BAK1 (BCL2 antagonist/killer 1)	1	-0.0417	33	inactive
28	BAK1 (BCL2 antagonist/killer 1)	2	-0.266	53.4	inactive
29	BAK1 (BCL2 antagonist/killer 1)	3	-0.247	79.9	inactive
30	BAK1 (BCL2 antagonist/killer 1)	4	-0.217	108	inactive
31	CELA3A (chymotrypsin like elastase 3A)	1	-0.632	110	inactive
32	CELA3A (chymotrypsin like elastase 3A)	2	0.499	52.1	inactive
33	CELA3A (chymotrypsin like elastase 3A)	3	-0.352	99.6	inactive
34	CELA3A (chymotrypsin like elastase 3A)	4	-0.0757	62.8	inactive
35	CELA3A (chymotrypsin like elastase 3A)	5	-0.226	49.2	inactive
36	CAMK2G (calcium/calmodulin dependent protein kinase II gamma)	1	0.278	40.5	inactive
37	CAMK2G (calcium/calmodulin dependent protein kinase II gamma)	2	-0.189	114	inactive
38	CAMK2G (calcium/calmodulin dependent protein kinase II gamma)	3	-0.00811	101	inactive
39	CAMK2G (calcium/calmodulin dependent protein kinase II gamma)	4	0.176	80	inactive
40	OR8D2 (olfactory receptor family 8 subfamily D member 2)	1	0.124	82.9	inactive
41	OR8D2 (olfactory receptor family 8 subfamily D member 2)	2	-0.605	33.9	inactive
42	OR8D2 (olfactory receptor family 8 subfamily D member 2)	3	-0.173	35.7	inactive
43	OR8D2 (olfactory receptor family 8 subfamily D member 2)	4	-0.311	52.6	inactive
44	NME6 (NME/NM23 nucleoside diphosphate kinase 6)	1	-0.139	83.3	inactive
45	NME6 (NME/NM23 nucleoside diphosphate kinase 6)	2	0.0501	54.6	inactive
46	NME6 (NME/NM23 nucleoside diphosphate kinase 6)	3	-0.0946	86.4	inactive
47	NME6 (NME/NM23 nucleoside diphosphate kinase 6)	4	-0.227	113	inactive
48	EPHA8 (EPH receptor A8)	1	-0.391	86.9	inactive
49	EPHA8 (EPH receptor A8)	2	0.076	63.8	inactive
50	EPHA8 (EPH receptor A8)	3	-0.0899	93.9	inactive
51	EPHA8 (EPH receptor A8)	4	-0.306	138	inactive
52	EPHA8 (EPH receptor A8)	5	0.254	52.1	inactive
53	EPHA8 (EPH receptor A8)	6	1.63	10.7	inactive
54	EPHA8 (EPH receptor A8)	7	-0.241	91.5	inactive
55	EPHA8 (EPH receptor A8)	8	-0.212	101	inactive
56	SHH (sonic hedgehog signaling molecule)	1	0.236	34.4	inactive
57	SHH (sonic hedgehog signaling molecule)	2	-0.116	69.6	inactive
58	SHH (sonic hedgehog signaling molecule)	3	0.987	32.2	inactive
59	RAB9B (RAB9B, member RAS oncogene family)	1	-0.255	123	inactive
60	RAB9B (RAB9B, member RAS oncogene family)	2	0.17	85.5	inactive
61	RAB9B (RAB9B, member RAS oncogene family)	3	-0.238	58.2	inactive
62	RAB9B (RAB9B, member RAS oncogene family)	4	-0.142	93.8	inactive
63	MRGPRX3 (MAS related GPR family member X3)	1	-0.0327	92.6	inactive
64	MRGPRX3 (MAS related GPR family member X3)	2	0.509	58.9	inactive
65	MRGPRX3 (MAS related GPR family member X3)	3	-0.0118	89.1	inactive
66	MRGPRX3 (MAS related GPR family member X3)	4	-0.0265	108	inactive
67	ALK (ALK receptor tyrosine kinase)	1	-0.451	81	inactive
68	ALK (ALK receptor tyrosine kinase)	2	-0.0341	62.5	inactive
69	ALK (ALK receptor tyrosine kinase)	3	-0.737	100	inactive
70	ALK (ALK receptor tyrosine kinase)	4	-0.459	69.1	inactive
71	CCL22 (C-C motif chemokine ligand 22)	1	-0.134	42.1	inactive
72	CCL22 (C-C motif chemokine ligand 22)	2	-0.157	102	inactive
73	CCL22 (C-C motif chemokine ligand 22)	3	-0.0464	111	inactive
74	CD300LB (CD300 molecule like family member b)	1	0.253	45.8	inactive
75	CD300LB (CD300 molecule like family member b)	2	0.00838	74.8	inactive
76	CD300LB (CD300 molecule like family member b)	3	-0.385	61.9	inactive
77	CD300LB (CD300 molecule like family member b)	4	0.495	66.7	inactive
78	TREM1 (triggering receptor expressed on myeloid cells 1)	1	-0.0216	80.4	inactive
79	TREM1 (triggering receptor expressed on myeloid cells 1)	2	-0.0984	111	inactive
80	TREM1 (triggering receptor expressed on myeloid cells 1)	3	-0.0395	79.9	inactive
81	TREM1 (triggering receptor expressed on myeloid cells 1)	4	0.111	81.1	inactive
82	IL7R (interleukin 7 receptor)	1	0.0615	107	inactive
83	IL7R (interleukin 7 receptor)	2	-0.431	46.3	inactive
84	IL7R (interleukin 7 receptor)	3	-0.704	50.5	inactive
85	IL7R (interleukin 7 receptor)	4	0.042	74.4	inactive
86	GPT (glutamic--pyruvic transaminase)	1	-0.416	102	inactive
87	GPT (glutamic--pyruvic transaminase)	2	-0.435	67.5	inactive
88	GPT (glutamic--pyruvic transaminase)	3	-0.172	83.6	inactive
89	GPT (glutamic--pyruvic transaminase)	4	0.091	68.7	inactive
